According to the supplement of paper PMC8728848:
Some of the results follow.

How the values were obtained:
Assay in all cases: glycan array binding signal (z-score within array); higher = stronger binding
Settings in all cases: glycan notation: IUPAC condensed, linker removed
[1] = target: GlcNAc(a1-4)Gal(b1-4)GlcNAc(b1-3)Gal(b1-4)[Fuc(a1-3)]GlcNAc(b1-3)Gal(b1-4)[Fuc(a1-3)]GlcNAc
In short: (§1)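 The binding signal is a Z-score computed within each array. Data were drawn from 3228 arrays in the Consortium for Functional Glycomics database, restricted to those with a known protein sequence. Scores were averaged over arrays of the same protein sequence at different concentrations or buffers, and over linkers, and negative values can be taken as non-binding.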

[2] = target: GlcNAc(a1-6)Gal(b1-4)GlcNAc
In short: as §1

[3] = target: GlcNAc(b1-2)Gal(b1-3)GalNAc
In short: as §1

[4] = target: GlcNAc(b1-2)Man(a1-3)[GlcNAc(b1-2)Man(a1-6)]Man(b1-4)GlcNAc(b1-4)GlcNAc
In short: as §1

[5] = target: GlcNAc(b1-2)Man(a1-3)[GlcNAc(b1-2)Man(a1-6)]Man(b1-4)GlcNAc(b1-4)[Fuc(a1-6)]GlcNAc
In short: as §1

[6] = target: GlcNAc(b1-2)Man(a1-3)[GlcNAc(b1-4)][GlcNAc(b1-2)Man(a1-6)]Man(b1-4)GlcNAc(b1-4)GlcNAc
In short: as §1

[7] = target: GlcNAc(b1-2)Man(a1-3)[GlcNAc(b1-4)][GlcNAc(b1-2)Man(a1-6)]Man(b1-4)GlcNAc(b1-4)[Fuc(a1-6)]GlcNAc
In short: as §1

[8] = target: GlcNAc(b1-2)[GlcNAc(b1-4)]Man(a1-3)[GlcNAc(b1-2)Man(a1-6)]Man(b1-4)GlcNAc(b1-4)GlcNAc
In short: as §1

[9] = target: GlcNAc(b1-2)[GlcNAc(b1-4)]Man(a1-3)[GlcNAc(b1-4)][GlcNAc(b1-2)Man(a1-6)]Man(b1-4)GlcNAc(b1-4)GlcNAc
In short: as §1

[10] = target: GlcNAc(b1-2)[GlcNAc(b1-4)]Man(a1-3)[GlcNAc(b1-4)][GlcNAc(b1-2)[GlcNAc(b1-6)]Man(a1-6)]Man(b1-4)GlcNAc(b1-4)GlcNAc
In short: as §1

[11] = target: GlcNAc(b1-2)[GlcNAc(b1-4)]Man(a1-3)[GlcNAc(b1-4)][GlcNAc(b1-2)[GlcNAc(b1-6)]Man(a1-6)]Man(b1-4)GlcNAc(b1-4)[Fuc(a1-6)]GlcNAc
In short: as §1

[12] = target: GlcNAc(b1-2)[GlcNAc(b1-6)]Man(a1-6)[GlcNAc(b1-2)Man(a1-3)]Man(b1-4)GlcNAc(b1-4)GlcNAc
In short: as §1

[13] = target: GlcNAc(b1-2)[GlcNAc(b1-6)]Man(a1-6)[GlcNAc(b1-2)Man(a1-3)]Man(b1-4)GlcNAc(b1-4)[Fuc(a1-6)]GlcNAc
In short: as §1

[14] = target: GlcNAc(b1-2)[GlcNAc(b1-6)]Man(a1-6)[GlcNAc(b1-2)Man(a1-3)][GlcNAc(b1-4)]Man(b1-4)GlcNAc(b1-4)GlcNAc
In short: as §1

[15] = target: GlcNAc(b1-2)[GlcNAc(b1-6)]Man(a1-6)[GlcNAc(b1-4)][GlcNAc(b1-2)Man(a1-3)]Man(b1-4)GlcNAc(b1-4)GlcNAc
In short: as §1

GlcNAc(b1-3)Fuc = target: GlcNAc(b1-3)Fuc
In short: as §1

GlcNAc(b1-3)Gal = target: GlcNAc(b1-3)Gal
In short: as §1

[16] = target: GlcNAc(b1-3)Gal(b1-3)GalNAc
In short: as §1

GlcNAc(b1-3)Gal(b1-4)Glc = target: GlcNAc(b1-3)Gal(b1-4)Glc
In short: as §1

[17] = target: GlcNAc(b1-3)Gal(b1-4)GlcNAc
In short: as §1

[18] = target: GlcNAc(b1-3)Gal(b1-4)GlcNAc(b1-2)Man(a1-3)[GlcNAc(b1-3)Gal(b1-4)GlcNAc(b1-2)Man(a1-6)]Man(b1-4)GlcNAc(b1-4)GlcNAc
In short: as §1

[19] = target: GlcNAc(b1-3)Gal(b1-4)GlcNAc(b1-2)Man(a1-3)[GlcNAc(b1-3)Gal(b1-4)GlcNAc(b1-2)Man(a1-6)]Man(b1-4)GlcNAc(b1-4)[Fuc(a1-6)]GlcNAc
In short: as §1

[20] = target: GlcNAc(b1-3)Gal(b1-4)GlcNAc(b1-2)[GlcNAc(b1-3)Gal(b1-4)GlcNAc(b1-6)]Man(a1-6)[GlcNAc(b1-3)Gal(b1-4)GlcNAc(b1-2)Man(a1-3)]Man(b1-4)GlcNAc(b1-4)GlcNAc
In short: as §1

[21] = target: GlcNAc(b1-3)Gal(b1-4)GlcNAc(b1-3)Gal(b1-4)GlcNAc
In short: as §1

[22] = target: GlcNAc(b1-3)Gal(b1-4)GlcNAc(b1-3)Gal(b1-4)GlcNAc(b1-2)Man(a1-3)[GlcNAc(b1-3)Gal(b1-4)GlcNAc(b1-3)Gal(b1-4)GlcNAc(b1-2)Man(a1-6)]Man(b1-4)GlcNAc(b1-4)GlcNAc
In short: as §1

[23] = target: GlcNAc(b1-3)Gal(b1-4)GlcNAc(b1-3)Gal(b1-4)GlcNAc(b1-2)Man(a1-3)[GlcNAc(b1-3)Gal(b1-4)GlcNAc(b1-3)Gal(b1-4)GlcNAc(b1-2)Man(a1-6)]Man(b1-4)GlcNAc(b1-4)[Fuc(a1-6)]GlcNAc
In short: as §1

[24] = target: GlcNAc(b1-3)Gal(b1-4)GlcNAc(b1-3)Gal(b1-4)GlcNAc(b1-2)[GlcNAc(b1-3)Gal(b1-4)GlcNAc(b1-3)Gal(b1-4)GlcNAc(b1-6)]Man(a1-6)[GlcNAc(b1-3)Gal(b1-4)GlcNAc(b1-3)Gal(b1-4)GlcNAc(b1-2)Man(a1-3)]Man(b1-4)GlcNAc(b1-4)[Fuc(a1-6)]GlcNAc
In short: as §1

[25] = target: GlcNAc(b1-3)Gal(b1-4)GlcNAc(b1-3)Gal(b1-4)GlcNAc(b1-3)Gal(b1-4)GlcNAc(b1-2)Man(a1-3)[GlcNAc(b1-3)Gal(b1-4)GlcNAc(b1-3)Gal(b1-4)GlcNAc(b1-3)Gal(b1-4)GlcNAc(b1-2)Man(a1-6)]Man(b1-4)GlcNAc(b1-4)GlcNAc
In short: as §1

[26] = target: GlcNAc(b1-3)Gal(b1-4)GlcNAc(b1-3)Gal(b1-4)GlcNAc(b1-3)Gal(b1-4)GlcNAc(b1-2)Man(a1-3)[GlcNAc(b1-3)Gal(b1-4)GlcNAc(b1-3)Gal(b1-4)GlcNAc(b1-3)Gal(b1-4)GlcNAc(b1-2)Man(a1-6)]Man(b1-4)GlcNAc(b1-4)[Fuc(a1-6)]GlcNAc
In short: as §1

[27] = target: GlcNAc(b1-3)Gal(b1-4)GlcNAc(b1-3)Gal(b1-4)GlcNAc(b1-3)Gal(b1-4)GlcNAc(b1-2)[GlcNAc(b1-3)Gal(b1-4)GlcNAc(b1-3)Gal(b1-4)GlcNAc(b1-3)Gal(b1-4)GlcNAc(b1-6)]Man(a1-6)[GlcNAc(b1-3)Gal(b1-4)GlcNAc(b1-3)Gal(b1-4)GlcNAc(b1-3)Gal(b1-4)GlcNAc(b1-2)Man(a1-3)]Man(b1-4)GlcNAc(b1-4)[Fuc(a1-6)]GlcNAc
In short: as §1

[28] = target: GlcNAc(b1-3)Gal(b1-4)GlcNAc(b1-3)Gal(b1-4)GlcNAc(b1-3)Gal(b1-4)GlcNAc(b1-3)Gal(b1-4)GlcNAc(b1-2)Man(a1-3)[GlcNAc(b1-3)Gal(b1-4)GlcNAc(b1-3)Gal(b1-4)GlcNAc(b1-3)Gal(b1-4)GlcNAc(b1-3)Gal(b1-4)GlcNAc(b1-2)Man(a1-6)]Man(b1-4)GlcNAc(b1-4)GlcNAc
In short: as §1

[29] = target: GlcNAc(b1-3)Gal(b1-4)GlcNAc(b1-3)Gal(b1-4)GlcNAc(b1-3)Gal(b1-4)GlcNAc(b1-3)Gal(b1-4)GlcNAc(b1-2)Man(a1-3)[GlcNAc(b1-3)Gal(b1-4)GlcNAc(b1-3)Gal(b1-4)GlcNAc(b1-3)Gal(b1-4)GlcNAc(b1-3)Gal(b1-4)GlcNAc(b1-2)Man(a1-6)]Man(b1-4)GlcNAc(b1-4)[Fuc(a1-6)]GlcNAc
In short: as §1

[30] = target: GlcNAc(b1-3)Gal(b1-4)GlcNAc(b1-3)Gal(b1-4)GlcNAc(b1-3)Gal(b1-4)GlcNAc(b1-3)Gal(b1-4)GlcNAc(b1-2)[GlcNAc(b1-3)Gal(b1-4)GlcNAc(b1-3)Gal(b1-4)GlcNAc(b1-3)Gal(b1-4)GlcNAc(b1-3)Gal(b1-4)GlcNAc(b1-6)]Man(a1-6)[GlcNAc(b1-3)Gal(b1-4)GlcNAc(b1-3)Gal(b1-4)GlcNAc(b1-3)Gal(b1-4)GlcNAc(b1-3)Gal(b1-4)GlcNAc(b1-2)Man(a1-3)]Man(b1-4)GlcNAc(b1-4)[Fuc(a1-6)]GlcNAc
In short: as §1

[31] = target: GlcNAc(b1-3)Gal(b1-4)GlcNAc(b1-3)Gal(b1-4)GlcNAc(b1-3)GalNAc
In short: as §1

[32] = target: GlcNAc(b1-3)Gal(b1-4)GlcNAc(b1-3)GalNAc
In short: as §1

[33] = target: GlcNAc(b1-3)Gal(b1-4)GlcNAc(b1-3)[GlcNAc(b1-3)Gal(b1-4)GlcNAc(b1-3)]GalNAc
In short: as §1

[34] = target: GlcNAc(b1-3)Gal(b1-4)GlcNAc(b1-6)[Gal(b1-3)]GalNAc
In short: as §1

B1: MFG-E8 (Mus musculus), P21956 (protein)
chain: MQVSRVLAALCGMLLCASGLFAASGDFCDSSLCLNGGTCLTGQDNDIYCLCPEGFTGLVCNETERGPCSPNPCYNDAKCLVTLDTQRGDIFTEYICQCPVGYSGIHCETETNYYNLDGEYMFTTAVPNTAVPTPAPTPDLSNNLASRCSTQLGMEGGAIADSQISASSVYMGFMGLQRWGPELARLYRTGIVNAWTASNYDSKPWIQVNLLRKMRVSGVMTQGASRAGRAEYLKTFKVAYSLDGRKFEFIQDESGGDKEFLGNLDNNSLKVNMFNPTLEAQYIKLYPVSCHRGCTLRFELLGCELHGCSEPLGLKNNTIPDSQMSASSSYKTWNLRAFGWYPHLGRLDNQGKINAWTAQSNSAKEWLQVDLGTQRQVTGIITQGARDFGHIQYVASYKVAHSDDGVQWTVYEEQGSSKVFQGNLDNNSHKKNIFEKPFMARYVRVLPVSWHNRITLRLELLGC
[1]
  glycan array binding signal (z-score): 0.423
[2]
  glycan array binding signal (z-score): -0.114
[3]
  glycan array binding signal (z-score): 0.853
[4]
  glycan array binding signal (z-score): -0.045
[5]
  glycan array binding signal (z-score): -0.213
[6]
  glycan array binding signal (z-score): -0.607
[7]
  glycan array binding signal (z-score): -0.174
[8]
  glycan array binding signal (z-score): 1.21
[9]
  glycan array binding signal (z-score): -0.227
[10]
  glycan array binding signal (z-score): -0.387
[11]
  glycan array binding signal (z-score): -0.153
[12]
  glycan array binding signal (z-score): 0.452
[13]
  glycan array binding signal (z-score): 1.93
[14]
  glycan array binding signal (z-score): 0.127
[15]
  glycan array binding signal (z-score): -0.499
GlcNAc(b1-3)Fuc
  glycan array binding signal (z-score): -0.349
GlcNAc(b1-3)Gal
  glycan array binding signal (z-score): -0.534
[16]
  glycan array binding signal (z-score): -0.33
GlcNAc(b1-3)Gal(b1-4)Glc
  glycan array binding signal (z-score): -0.131
[17]
  glycan array binding signal (z-score): -0.613
[18]
  glycan array binding signal (z-score): -0.422
[19]
  glycan array binding signal (z-score): -0.259
[20]
  glycan array binding signal (z-score): -0.881
[21]
  glycan array binding signal (z-score): -0.128
[22]
  glycan array binding signal (z-score): 0.331
[23]
  glycan array binding signal (z-score): -0.299
[24]
  glycan array binding signal (z-score): -0.08
[25]
  glycan array binding signal (z-score): -0.513
[26]
  glycan array binding signal (z-score): 0.828
[27]
  glycan array binding signal (z-score): -0.431
[28]
  glycan array binding signal (z-score): 0.418
[29]
  glycan array binding signal (z-score): 0.534
[30]
  glycan array binding signal (z-score): 0.156
[31]
  glycan array binding signal (z-score): -0.017
[32]
  glycan array binding signal (z-score): 0.398
[33]
  glycan array binding signal (z-score): -0.154
[34]
  glycan array binding signal (z-score): -0.243
